Test results as given in patent US20240252440A1, “COMPOSITIONS, METHODS AND SYSTEMS FOR AEROSOL DRUG DELIVERY” (ASTRAZENECA PHARMACEUTICALS LP, priority 2021, published 2024).
For at least one compound, name, drawing or mass did not settle the structure.

Assay: Particle size distribution by laser diffraction
Type: physicochemical
Source text: When referred to herein, the term “optical diameter” indicates the size of a particle as measured by the Fraunhofer diffraction mode using a laser diffraction particle size analyzer equipped with a dry powder dispenser (e.g., Sympatec GmbH, Clasthal-Zellerfeld, Germany).
Suspending particles were manufactured by spray drying an emulsion of PFOB (perfluorooctyl bromide) and water stabilized by DSPC (1,2-Distearoyl-sn-Glycero-3-Phosphocholine). […] The particle size distribution of the suspending particles was determined by laser diffraction.
Active agent particles formed of budesonide, 16,17-(butylidenebis(oxy))-11,21-dihydroxy-(11-β,16-α)-pregna-1,4-diene-3,20-dione, were formed by micronizing budesonide using a jet mill. The particle size distribution of the budesonide (BD) was determined by laser diffraction.

Compound: CCCC1O[C@@H]2C[C@H]3[C@@H]4CCC5=CC(=O)C=C[C@]5(C)[C@H]4[C@@H](O)C[C@]3(C)[C@]2(C(=O)CO)O1 (stereo partly drawn) [budesonide, 16,17-(butylidenebis(oxy))-11,21-dihydroxy-(11-β,16-α)-pregna-1,4-diene-3,20-dione]
- optical diameter exhibited by 50% by volume of the particles: smaller than 1.9 μm
- optical diameter exhibited by 90% by volume of the particles: smaller than 4.3 μm
